Measurements reported in the supplement of paper PMC11006884.
The list shows a part of the results, in another mix than the full data. The data scatter; read single values as rough.

compound: COC(=O)/C=C/c1ccccc1 [methyl cinnamate]; assay: log2 ratio of iodoacetamide-alkyne labeling of the cysteine site, DMSO over compound (competition); higher = stronger covalent engagement of the cysteine by the compound, active = 1 or more; details: 500 µM; treatment time 1 h; system: HEK293T cell lysate
Procedure, shortened: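 After 1 h at ambient temperature with vehicle or electrophile (500 µM), HEK293T lysate (2 mg/mL) was labelled for 1 h with iodoacetamide alkyne and clicked to sCIP-TMT reagents. Pooled samples were trypsin-digested overnight at 37 °C, streptavidin-enriched, acid-eluted and analysed by Orbitrap Eclipse LC-MS/MS with FAIMS, then quantified in FragPipe over three replicates with duplicate channels. A cysteine's log2 competition ratio is its mean control-channel over mean compound-channel reporter intensity. Cysteines quantified in only one replicate were not included.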

log2 ratio of iodoacetamide-alkyne labeling, inactive:
H3F3A C111 (UniProt P84243) -0.157
SORD C130 (UniProt Q00796) 0.014
UniProt P83731_C6 0.243
UniProt P78527_C2342 0.168
UniProt P84090_C33 0.131
CLTC C934 (UniProt Q00610) 0.0625
UniProt P63244_C240 0.0875
SORD C120 (UniProt Q00796) 0.0887
UniProt P68363_C295 0.199
FKBP3 C133 (UniProt Q00688) -0.0861
GRB2 C32 (UniProt P62993) 0.218
CNBP C171 (UniProt P62633) -0.00835
CLTC C753 (UniProt Q00610) 0.096
EWSR1 C524 (UniProt Q01844) 0.0458
FOXK1 C439 (UniProt P85037) 0.188
OGDH C283 (UniProt Q02218) 0.0413
UniProt Q00341_C855 0.379
UniProt P62873_C25 0.0241
PPIA C52 (UniProt P62937) 0.14
UniProt P78527_C1904 0.14
UniProt P78527_C3403 -0.208
HMGCS1 C268 (UniProt Q01581) 0.0842
CCT2 C289 (UniProt P78371) 0.311
UniProt P63167_C24 0.0233
UniProt P62318_C20 -0.0218
EEF1A1 C111 (UniProt P68104) -0.0671
FABP5 C127 (UniProt Q01469) 0.00798
UniProt Q02040_C17 -0.183
P86790_C471 (UniProt P86791+P86790) 0.177
UniProt Q02040_C579 0.543
UniProt P62280_C131 0.162
EXOSC10 C73 (UniProt Q01780) 0.132
UniProt P84103_C6 0.0188
UniProt P78527_C1499 0.308
UniProt P63241_C22 0.0899
CNBP C140 (UniProt P62633) 0.0247
UniProt P68363_C25 0.108

At a glance, part of the list above.
log2 ratio of iodoacetamide-alkyne labeling, inactive:
UniProt P78527_C1499 0.308
UniProt P63241_C22 0.0899
